Data as given in PubChem BioAssay AID1224830 (NIAID, 2016)

- Test: 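Genes whose knock-down alters the TNF-alpha reporter response to LPS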 (primary screen)
- Cells: human THP-1 monocytic leukaemia cells, TNF dual-luciferase reporter clone, PMA-differentiated to macrophage-like cells
- Reagents: siRNA pool against human genes, 50 nM
- Duration: LPS for 4 h, given about 3 days after siRNA transfection
- Conditions: bacterial LPS (TLR4 ligand), 10 ng/ml
- Detection: 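TNF firefly reporter luminescence divided by renilla, normalised to the plate median, then turned into a robust z-score for each replicate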
- Direction: TNF reporter robust z-score: higher = stronger TNF reporter response to LPS
- Rule for the call: 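a well is active when its z-score exceeds 2.8 or falls below -1.5; control wells carry no call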
The deposit covers about 18,000 reagents; this is a part drawn at random. About 2,900 of all reagents (16%) were called active. 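Calls are made per well; low scores hint the gene aids the LPS response, high scores that it dampens it.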 Repeated entries: four replicate wells of each siRNA pool. Reagent sequences are not shown.

For SNX12, the values are TNF reporter robust z-score -1.25; inactive.
After knock-down of SNX12, the screen gave TNF reporter robust z-score -0.5; inactive.
SNX12 scored TNF reporter robust z-score -0.73; inactive.
After knock-down of SNX12, the screen gave TNF reporter robust z-score -0.49; inactive.
RBPJL showed TNF reporter robust z-score 2.01; inactive.
RBPJL gave TNF reporter robust z-score 1.67; inactive.
RBPJL scored TNF reporter robust z-score 0.7; inactive.
RBPJL scored TNF reporter robust z-score 1.18; inactive.

2 of these entries in another layout:
target gene	TNF reporter robust z-score	activity call
SNX12	-0.5	inactive
SNX12	-0.73	inactive

The results go on.
After knock-down of ANKRD20A2P the results were TNF reporter robust z-score -1.29; inactive.
Silencing of ANKRD20A2P resulted in: TNF reporter robust z-score 0.8; inactive.
ANKRD20A2P scored TNF reporter robust z-score 1.44; inactive.
ANKRD20A2P gave TNF reporter robust z-score 1.09; inactive.
Against EIF3J the deposit lists TNF reporter robust z-score -0.58; inactive.
Knock-down of EIF3J came out at: TNF reporter robust z-score -1.17; inactive.
Knock-down of EIF3J gave: TNF reporter robust z-score -1.14; inactive.
Against EIF3J, the entry reads TNF reporter robust z-score -1.57; active.
After knock-down of ARHGEF3 the results were TNF reporter robust z-score -1.17; inactive.
Knock-down of ARHGEF3 came out at: TNF reporter robust z-score -0.97; inactive.
Against ARHGEF3, the values are TNF reporter robust z-score -0.84; inactive.
ARHGEF3 showed TNF reporter robust z-score -1.26; inactive.
